Source: PubChem BioAssay AID252 (DTP/NCI, 2004)
The list is a part of this screen's results and no random one: it gathers tests that were run many times, whatever their T/C, doses with no T/C, and many T/C values between a quarter and a half above the control. Other doses and runs of a compound stand elsewhere. T/C: endpoint of the treated group in % of that of the vehicle group. Some entries give survivors of the animals treated and no T/C: the source files T/C as zero there, which appears to mark a toxic dose or a test without result, not a measured value. Some survivor counts are full or nearly so, which does not show that the dose was tolerated: the source hardly ever lists a survival T/C far under the control, and the zero likely stands for such cases as well. Counts of survivors are from the toxicity check (mostly the fifth day) where no day follows; animals may have died later. Schedule codes are those of the source, read here as Q, the interval in days (D) or hours (H), X, the number of doses. Some schedules carry Z or #; the key to these is not given. Where survival is the endpoint, this PubChem deposit counts one and a half times the control or more as active, and values a quarter to a half above the control carry no call in these data; other NCI protocols may use other cut-offs. Some doses were run more than once; their values stand side by side, smallest first. Some T/C values carry the count of animals alive at the toxicity check (mostly the fifth day); where none is given, no animal had died by that day.

Tested on: BDF1 mice, intracerebral L1210 leukemia, survival T/C
Experiment: NCI In Vivo Anticancer Drug Screen. Data for tumor model L1210 Leukemia (intracerebral) in B6D2F1 (BDF1) mice
Settings: T/C endpoint: mean survival time, higher T/C = longer survival
Procedure, shortened: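 Survival measured in treated and vehicle-control tumour-bearing mice; value = T/C.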

SMILES: CC1CCC(NC(=O)N(CCF)N=O)CC1 (configuration not stated)
- T/C (dose: 30.0 mg/kg/injection, schedule: Q01DX001 (ip), vehicle: other): 140 % of control

SMILES: CC(C)(Cc1ccccc1)NC(=O)N(CCCl)N=O
- T/C (dose: 750.0 mg/kg/injection, schedule: Q01DX001 (ip), vehicle: other): 126 % of control [9 of 10 alive]
- T/C (dose: 1125.0 mg/kg/injection, schedule: Q01DX001 (ip), vehicle: other): 135 % of control [9 of 10 alive]

SMILES: O=NN(CCCl)C(=O)NCCCl
- T/C (dose: 2.0 mg/kg/injection, schedule: Q01DX009 (ip), vehicle: other): 137 % of control
- T/C (dose: 4.0 mg/kg/injection, schedule: Q01DX005 (ip), vehicle: saline): 131 % of control
- T/C (dose: 5.5 mg/kg/injection, schedule: Q04DX003 (ip), vehicle: saline + alcohol): 148 % of control
- T/C (dose: 6.0 mg/kg/injection, schedule: Q01DX001 (ip), vehicle: saline): 128 and 131 % of control
- T/C (dose: 7.0 mg/kg/injection, schedule: Q01DX001 (ip), vehicle: other): 134 % of control
- T/C (dose: 8.4 mg/kg/injection, schedule: Q01DX001 (ip), vehicle: saline): 131 % of control
- T/C (dose: 9.0 mg/kg/injection, schedule: Q01DX001 (ip), vehicle: saline): 139 and 140 % of control
- T/C (dose: 10.0 mg/kg/injection, schedule: Q01DX001 (ip), vehicle: other): 134 % of control [9 of 10 alive]
- T/C (dose: 10.0 mg/kg/injection, schedule: Q01DX001 (ip), vehicle: saline, evaluated on day 7): 149 % of control
- T/C (dose: 10.0 mg/kg/injection, schedule: Q01DX001 (ip), vehicle: saline, evaluated on day 15): 154 % of control
- T/C (dose: 10.0 mg/kg/injection, schedule: Q01DX001 (ip), vehicle: saline, evaluated on day 21): 145 % of control
- T/C (dose: 10.0 mg/kg/injection, schedule: Q01DX001 (ip), vehicle: saline, evaluated on day 30): 138 and 149 % of control
- T/C (dose: 10.0 mg/kg/injection, schedule: Q01DX001 (ip), vehicle: saline, evaluated on day 33): 124 % of control
- T/C (dose: 10.0 mg/kg/injection, schedule: Q01DX001 (ip), vehicle: saline, evaluated on day 40): 128, 135, 142 % of control
- T/C (dose: 10.0 mg/kg/injection, schedule: Q01DX001 (ip), vehicle: saline, evaluated on day 45): 157 % of control
- T/C (dose: 10.0 mg/kg/injection, schedule: Q01DX001 (ip), vehicle: saline, evaluated on day 60): 162 % of control
- T/C (dose: 10.0 mg/kg/injection, schedule: Q01DX001 (ip), vehicle: saline, run until all animals had died): 135 and 157 % of control
- T/C (dose: 10.0 mg/kg/injection, schedule: Q01DX001 (oral), vehicle: saline, evaluated on day 30): 145 % of control
- T/C (dose: 10.0 mg/kg/injection, schedule: Q01DX001 (oral), vehicle: saline, run until all animals had died): 134 % of control
- T/C (dose: 12.0 mg/kg/injection, schedule: Q01DX001 (ip), vehicle: saline): 141 % of control
- T/C (dose: 14.0 mg/kg/injection, schedule: Q01DX001 (ip), vehicle: saline, evaluated on day 7): 124 % of control
- T/C (dose: 14.0 mg/kg/injection, schedule: Q01DX001 (ip), vehicle: saline, evaluated on day 19): 246 % of control
- T/C (dose: 14.0 mg/kg/injection, schedule: Q01DX001 (ip), vehicle: saline, evaluated on day 27): 130 % of control
- T/C (dose: 14.0 mg/kg/injection, schedule: Q01DX001 (ip), vehicle: saline, evaluated on day 30): 155 % of control
- T/C (dose: 15.0 mg/kg/injection, schedule: Q01DX001 (ip), vehicle: saline): 133 % of control
- T/C (dose: 20.0 mg/kg/injection, schedule: Q01DX001 (ip), vehicle: saline, evaluated on day 7): 193 % of control
- T/C (dose: 20.0 mg/kg/injection, schedule: Q01DX001 (ip), vehicle: saline, evaluated on day 15): 178 % of control
- T/C (dose: 20.0 mg/kg/injection, schedule: Q01DX001 (ip), vehicle: saline, evaluated on day 21): 194 % of control
- T/C (dose: 20.0 mg/kg/injection, schedule: Q01DX001 (ip), vehicle: saline, evaluated on day 30): 193 % of control
- T/C (dose: 20.0 mg/kg/injection, schedule: Q01DX001 (ip), vehicle: saline, evaluated on day 33): 152 % of control
- T/C (dose: 20.0 mg/kg/injection, schedule: Q01DX001 (ip), vehicle: saline, evaluated on day 40): 189 and 267 % of control
- T/C (dose: 20.0 mg/kg/injection, schedule: Q01DX001 (ip), vehicle: saline, evaluated on day 45): 264 % of control
- T/C (dose: 20.0 mg/kg/injection, schedule: Q01DX001 (ip), vehicle: saline, evaluated on day 60): 253 % of control
- T/C (dose: 20.0 mg/kg/injection, schedule: Q01DX001 (ip), vehicle: saline, run until all animals had died): 149, 230, 287 % of control
- T/C (dose: 23.0 mg/kg/injection, schedule: Q01DX001 (ip), vehicle: saline, evaluated on day 7): 193 % of control
- T/C (dose: 23.0 mg/kg/injection, schedule: Q01DX001 (ip), vehicle: saline, evaluated on day 19): 246 % of control
- T/C (dose: 23.0 mg/kg/injection, schedule: Q01DX001 (ip), vehicle: saline, evaluated on day 27): 163 % of control
- T/C (dose: 23.0 mg/kg/injection, schedule: Q01DX001 (ip), vehicle: saline, evaluated on day 30): 255 % of control [9 of 10 alive]
- survivor count (dose: 32.0 mg/kg/injection, schedule: Q01DX009 (ip), vehicle: other): 10 of 10
- T/C (dose: 39.0 mg/kg/injection, schedule: Q01DX001 (ip), vehicle: saline, evaluated on day 7): 96 % of control
- T/C (dose: 39.0 mg/kg/injection, schedule: Q01DX001 (ip), vehicle: saline, evaluated on day 19): 138 % of control
- T/C (dose: 39.0 mg/kg/injection, schedule: Q01DX001 (ip), vehicle: saline, evaluated on day 27): 101 % of control
- T/C (dose: 39.0 mg/kg/injection, schedule: Q01DX001 (ip), vehicle: saline, evaluated on day 30): 169 % of control
- T/C (dose: 39.0 mg/kg/injection, schedule: Q01DX001 (ip), vehicle: saline, run until all animals had died): 106, 272, 276, 300 % of control
- T/C (dose: 40.0 mg/kg/injection, schedule: Q01DX001 (ip), vehicle: saline, evaluated on day 7): 213 % of control
- T/C (dose: 40.0 mg/kg/injection, schedule: Q01DX001 (ip), vehicle: saline, evaluated on day 21): 190 % of control [7 of 8 alive]
- T/C (dose: 40.0 mg/kg/injection, schedule: Q01DX001 (ip), vehicle: saline, evaluated on day 30): 162 and 213 % of control
- T/C (dose: 40.0 mg/kg/injection, schedule: Q01DX001 (ip), vehicle: saline, evaluated on day 33): 297 % of control
- T/C (dose: 40.0 mg/kg/injection, schedule: Q01DX001 (ip), vehicle: saline, evaluated on day 40): 145 [7 of 8 alive], 174, 213 % of control
- T/C (dose: 40.0 mg/kg/injection, schedule: Q01DX001 (ip), vehicle: saline, evaluated on day 60): 262 % of control
- T/C (dose: 62.0 mg/kg/injection, schedule: Q01DX001 (ip), vehicle: other): 148 % of control
- survivor count (dose: 64.0 mg/kg/injection, schedule: Q01DX009 (ip), vehicle: other): 10 of 10
- survivor count (dose: 65.0 mg/kg/injection, schedule: Q01DX001 (ip), vehicle: saline): 5 of 10
- T/C (dose: 79.0 mg/kg/injection, schedule: Q01DX001 (oral), vehicle: saline): 141 % of control
- survivor count (dose: 80.0 mg/kg/injection, schedule: Q01DX001 (ip), vehicle: other): 9 of 10
- survivor count (dose: 96.0 mg/kg/injection, schedule: Q01DX001 (ip), vehicle: saline): 10 of 10
- survivor count (dose: 160.0 mg/kg/injection, schedule: Q01DX001 (ip), vehicle: other): 3 of 10
- survivor count (dose: 192.0 mg/kg/injection, schedule: Q01DX001 (ip), vehicle: saline): 1 of 10

SMILES: CC[n+]1c(-c2ccccc2)c2cc(N)ccc2c2ccc(N)cc21
- T/C (dose: 3.75 mg/kg/injection, schedule: Q01DX Z (ip), vehicle: saline): 134 % of control
- survivor count (dose: 30.0 mg/kg/injection, schedule: Q01DX Z (ip), vehicle: saline): 5 of 6

SMILES: O=C(Nc1ccc(C2=NCCN2)cc1)c1cccc(C(=O)Nc2ccc(C3=NCCN3)cc2)c1
- survivor count (dose: 62.0 mg/kg/injection, schedule: Q01DX Z (ip), vehicle: water): 0 of 6
- survivor count (dose: 125.0 mg/kg/injection, schedule: Q01DX Z (ip), vehicle: water): 1 of 6
- survivor count (dose: 250.0 mg/kg/injection, schedule: Q01DX Z (ip), vehicle: water): 1 of 6
- survivor count (dose: 500.0 mg/kg/injection, schedule: Q01DX Z (ip), vehicle: water): 0 of 6
